Measured data: PubChem BioAssay AID1224830 (NIAID, 2016)

Test: 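Genes whose knock-down alters the TNF-alpha reporter response to LPS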 (primary screen)
Cell system: human THP-1 monocytic leukaemia cells, TNF dual-luciferase reporter clone, PMA-differentiated to macrophage-like cells
Reagents: siRNA pool against human genes, 50 nM
Timing: LPS for 4 h, given about 3 days after siRNA transfection
Treatment: bacterial LPS (TLR4 ligand), 10 ng/ml
Detection: 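TNF firefly reporter luminescence divided by renilla, normalised to the plate median, then turned into a robust z-score for each replicate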
Reading the numbers: TNF reporter robust z-score: higher = stronger TNF reporter response to LPS
Rule for the call: 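Each well counts as active if its z-score is over 2.8 or under -1.5; controls are left without a call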
In all, the deposit lists about 18,000 reagents; this is an unselected part. Of all reagents, about 2,900 (16%) were called active. 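Calls are made per well; low scores hint the gene aids the LPS response, high scores that it dampens it.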 Repeated entries: four replicate wells of each siRNA pool.

no.	gene	TNF reporter robust z-score	Call
1	SSR2 (GeneID 6746)	-0.22	inactive
2	SSR2 (GeneID 6746)	0.21	inactive
3	SSR2 (GeneID 6746)	-0.18	inactive
4	SSR2 (GeneID 6746)	0.18	inactive
5	NSUN4 (GeneID 387338)	-0.18	inactive
6	NSUN4 (GeneID 387338)	-0.02	inactive
7	NSUN4 (GeneID 387338)	0.02	inactive
8	NSUN4 (GeneID 387338)	-0.59	inactive
9	TRIM13 (GeneID 10206)	0.3	inactive
10	TRIM13 (GeneID 10206)	-0.68	inactive
11	TRIM13 (GeneID 10206)	-0.13	inactive
12	TRIM13 (GeneID 10206)	0.2	inactive
13	MARCHF10 (GeneID 162333)	0.14	inactive
14	MARCHF10 (GeneID 162333)	0.05	inactive
15	MARCHF10 (GeneID 162333)	0.59	inactive
16	MARCHF10 (GeneID 162333)	0.09	inactive
17	MGAT1 (GeneID 4245)	-1.64	active
18	MGAT1 (GeneID 4245)	-1.02	inactive
19	MGAT1 (GeneID 4245)	-0.89	inactive
20	MGAT1 (GeneID 4245)	-0.39	inactive
21	SEPHS1 (GeneID 22929)	0.17	inactive
22	SEPHS1 (GeneID 22929)	0	inactive
23	SEPHS1 (GeneID 22929)	0.34	inactive
24	SEPHS1 (GeneID 22929)	0.06	inactive
25	CARINH (GeneID 441108)	0.23	inactive
26	CARINH (GeneID 441108)	0.38	inactive
27	CARINH (GeneID 441108)	0.35	inactive
28	CARINH (GeneID 441108)	0.07	inactive
29	THOC7 (GeneID 80145)	-1.2	inactive
30	THOC7 (GeneID 80145)	-1.09	inactive
31	THOC7 (GeneID 80145)	-0.57	inactive
32	THOC7 (GeneID 80145)	-0.11	inactive
33	LBHD1 (GeneID 79081)	-1.16	inactive
34	LBHD1 (GeneID 79081)	-0.95	inactive
35	LBHD1 (GeneID 79081)	-1.74	active
36	LBHD1 (GeneID 79081)	-1	inactive
37	SIX3 (GeneID 6496)	0.19	inactive
38	SIX3 (GeneID 6496)	-0.25	inactive
39	SIX3 (GeneID 6496)	-0.67	inactive
40	SIX3 (GeneID 6496)	-0.31	inactive
41	SEMA6A (GeneID 57556)	1.6	inactive
42	SEMA6A (GeneID 57556)	0.75	inactive
43	SEMA6A (GeneID 57556)	0.8	inactive
44	SEMA6A (GeneID 57556)	0.39	inactive
45	LINC02908 (GeneID 401563)	-0.86	inactive
46	LINC02908 (GeneID 401563)	-0.55	inactive
47	LINC02908 (GeneID 401563)	-0.01	inactive
48	LINC02908 (GeneID 401563)	0.06	inactive

A portion from the list above:
no.	gene	TNF reporter robust z-score	Call
29	THOC7 (GeneID 80145)	-1.2	inactive
30	THOC7 (GeneID 80145)	-1.09	inactive
31	THOC7 (GeneID 80145)	-0.57	inactive
32	THOC7 (GeneID 80145)	-0.11	inactive
33	LBHD1 (GeneID 79081)	-1.16	inactive
34	LBHD1 (GeneID 79081)	-0.95	inactive
35	LBHD1 (GeneID 79081)	-1.74	active
36	LBHD1 (GeneID 79081)	-1	inactive
37	SIX3 (GeneID 6496)	0.19	inactive
38	SIX3 (GeneID 6496)	-0.25	inactive
39	SIX3 (GeneID 6496)	-0.67	inactive

More records:
no.	gene	TNF reporter robust z-score	Call
49	ZNF48 (GeneID 197407)	-0.66	inactive
50	ZNF48 (GeneID 197407)	-0.59	inactive
51	ZNF48 (GeneID 197407)	-0.8	inactive
52	ZNF48 (GeneID 197407)	-1.57	active
53	PYROXD2 (GeneID 84795)	0.85	inactive
54	PYROXD2 (GeneID 84795)	1.06	inactive
55	PYROXD2 (GeneID 84795)	-0.37	inactive
56	PYROXD2 (GeneID 84795)	0.43	inactive
57	SELENOK (GeneID 58515)	0.65	inactive
58	SELENOK (GeneID 58515)	1.2	inactive
59	SELENOK (GeneID 58515)	1.05	inactive
60	CFAP210 (GeneID 129881)	0	inactive
61	CFAP210 (GeneID 129881)	2.14	inactive
62	CFAP210 (GeneID 129881)	-0.59	inactive
63	CFAP210 (GeneID 129881)	0.08	inactive
64	ANGPTL6 (GeneID 83854)	-0.17	inactive
65	ANGPTL6 (GeneID 83854)	-0.6	inactive
66	ANGPTL6 (GeneID 83854)	-0.52	inactive
67	ANGPTL6 (GeneID 83854)	1.05	inactive
68	SPTLC2 (GeneID 9517)	0.07	inactive
69	SPTLC2 (GeneID 9517)	-0.41	inactive
70	SPTLC2 (GeneID 9517)	0.14	inactive
71	SPTLC2 (GeneID 9517)	2.3	inactive
72	TLCD4 (GeneID 148534)	0.42	inactive
73	TLCD4 (GeneID 148534)	-0.12	inactive
74	TLCD4 (GeneID 148534)	1.12	inactive
75	TLCD4 (GeneID 148534)	1.38	inactive
76	CD93 (GeneID 22918)	-0.7	inactive
77	CD93 (GeneID 22918)	-0.84	inactive
78	CD93 (GeneID 22918)	-1.15	inactive
79	CD93 (GeneID 22918)	-0.93	inactive
80	CCDC102B (GeneID 79839)	-1.57	active
81	CCDC102B (GeneID 79839)	-0.31	inactive
82	CCDC102B (GeneID 79839)	-1.2	inactive
83	CCDC102B (GeneID 79839)	-1.4	inactive
84	NUP214 (GeneID 8021)	-0.42	inactive
85	NUP214 (GeneID 8021)	0.92	inactive
86	NUP214 (GeneID 8021)	1.32	inactive
87	NUP214 (GeneID 8021)	0.29	inactive
88	PAM (GeneID 5066)	0.34	inactive
89	PAM (GeneID 5066)	-0.27	inactive
90	PAM (GeneID 5066)	-0.17	inactive
91	PAM (GeneID 5066)	-0.23	inactive
92	PMP22 (GeneID 5376)	-0.59	inactive
93	PMP22 (GeneID 5376)	0.18	inactive
94	PMP22 (GeneID 5376)	-0.49	inactive
95	PMP22 (GeneID 5376)	0.66	inactive
96	CTXN3 (GeneID 613212)	-0.5	inactive
97	CTXN3 (GeneID 613212)	0.35	inactive
98	CTXN3 (GeneID 613212)	-0.27	inactive
99	CTXN3 (GeneID 613212)	0.32	inactive
100	PKP1 (GeneID 5317)	-1.58	active
101	PKP1 (GeneID 5317)	-1.34	inactive
102	PKP1 (GeneID 5317)	-1.44	inactive
103	PKP1 (GeneID 5317)	-0.96	inactive
104	DORIP1 (GeneID 122525)	-0.87	inactive
105	DORIP1 (GeneID 122525)	0.05	inactive
106	DORIP1 (GeneID 122525)	-0.33	inactive
107	DORIP1 (GeneID 122525)	-0.18	inactive
108	PHKG2 (GeneID 5261)	0.71	inactive
109	PHKG2 (GeneID 5261)	0.53	inactive
110	PHKG2 (GeneID 5261)	0.91	inactive
111	PHKG2 (GeneID 5261)	1.44	inactive
